# Where “and” joins values, the source holds several entries; their conditions need not be identical. Equal entries are not always repeated. The list shows a part of the results. For some assays here: The exact form of the protein is not confirmed.
# Sequences of proteins named here, by UniProt entry; tags and fusion partners are left off. A change or cut given only in a name is not applied to a line headed by its entry.
# UniProt P31941: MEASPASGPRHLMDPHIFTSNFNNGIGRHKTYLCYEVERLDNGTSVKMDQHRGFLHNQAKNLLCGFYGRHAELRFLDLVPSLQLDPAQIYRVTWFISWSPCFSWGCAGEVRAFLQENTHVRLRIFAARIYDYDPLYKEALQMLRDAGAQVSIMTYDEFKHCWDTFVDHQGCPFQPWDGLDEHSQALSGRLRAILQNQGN
# UniProt P05067, whole entry: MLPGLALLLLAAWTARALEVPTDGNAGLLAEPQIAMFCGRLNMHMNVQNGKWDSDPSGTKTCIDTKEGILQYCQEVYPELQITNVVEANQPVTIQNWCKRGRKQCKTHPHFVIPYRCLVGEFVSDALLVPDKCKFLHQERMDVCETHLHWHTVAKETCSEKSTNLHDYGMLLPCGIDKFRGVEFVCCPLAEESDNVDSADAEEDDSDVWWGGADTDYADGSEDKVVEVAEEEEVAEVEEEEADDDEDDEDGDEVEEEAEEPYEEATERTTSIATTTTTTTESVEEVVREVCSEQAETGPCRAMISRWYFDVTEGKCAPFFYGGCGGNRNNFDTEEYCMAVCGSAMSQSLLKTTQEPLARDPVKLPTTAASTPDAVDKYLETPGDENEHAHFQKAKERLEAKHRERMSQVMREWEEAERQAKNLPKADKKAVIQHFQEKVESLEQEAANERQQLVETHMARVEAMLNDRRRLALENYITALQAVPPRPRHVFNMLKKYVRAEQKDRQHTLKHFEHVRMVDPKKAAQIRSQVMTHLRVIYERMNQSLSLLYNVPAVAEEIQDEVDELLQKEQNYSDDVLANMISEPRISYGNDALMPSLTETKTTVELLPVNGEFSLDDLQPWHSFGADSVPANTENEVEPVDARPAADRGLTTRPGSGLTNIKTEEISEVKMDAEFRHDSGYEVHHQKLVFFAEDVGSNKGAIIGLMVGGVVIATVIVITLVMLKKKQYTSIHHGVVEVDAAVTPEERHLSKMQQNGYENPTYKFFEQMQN
# How the values were obtained:
# Assay in all cases: protein microarray (ProtoArray v5.0), streptavidin-Alexa Fluor 647
# Settings in all cases: 3'-biotin; 20 mM Tris (pH 7.5), 5 mM MgCl2, 100 mM KCl, 0.1% Tween-20, A/T-rich and random oligonucleotide blockers; temperature not stated; high values mean tight binding
# [1] = tested on: APH1A (human)
# [2] = tested on: APIP (human)
# [3] = tested on: APITD1 (human)
# [4] = tested on: APLP2 (human)
# [5] = tested on: APOA1 (human)
# [6] = tested on: APOA1BP (human)
# [7] = tested on: APOA2 (human)
# [8] = biological target: APOBEC3A (UniProt P31941)
# [9] = tested on: APOC2 (human)
# [10] = tested on: APOH (human)
# [11] = tested on: APOM (human)
# [12] = biological target: APP (UniProt P05067)
# [13] = tested on: APPL2 (human)
# [14] = tested on: AQP5 (human)
# [15] = biological target: T1, AQP8 (UniProt O94778)
# T1 sequence: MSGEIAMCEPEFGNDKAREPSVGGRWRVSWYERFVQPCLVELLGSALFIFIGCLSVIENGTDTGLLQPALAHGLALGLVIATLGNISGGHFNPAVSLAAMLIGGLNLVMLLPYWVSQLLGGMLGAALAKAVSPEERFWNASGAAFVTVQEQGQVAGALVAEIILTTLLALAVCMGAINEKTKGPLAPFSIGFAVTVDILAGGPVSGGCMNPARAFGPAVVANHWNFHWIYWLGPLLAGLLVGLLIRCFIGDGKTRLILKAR
# [16] = tested on: ARF4 (human)
# [17] = tested on: ARF5 (human)
# [18] = tested on: ARFIP2 (human)
# [19] = tested on: ARHGAP24 (human)
# [20] = tested on: ARHGAP28 (human)
sequence,measurement,setting,value
GGGAGGCTGAGGCAGG [G4-1 biotinylated (PQS2)],binding signal,[1],-0.303 z-score
same,binding signal,[2],-0.353 z-score and -0.346 z-score and -0.339 z-score
same,binding signal,[3],-0.334 z-score
same,binding signal,[4],-0.329 z-score
same,binding signal,[5],-0.369 z-score
same,binding signal,[6],-0.32 z-score
same,binding signal,[7],-0.359 z-score
same,binding signal,[8],-0.336 z-score
same,binding signal,[9],-0.346 z-score
same,binding signal,[10],-0.325 z-score
same,binding signal,[11],-0.316 z-score
same,binding signal,[12],-0.327 z-score
same,binding signal,[13],-0.307 z-score
same,binding signal,[14],-0.347 z-score
same,binding signal,[15],-0.35 z-score
same,binding signal,[16],-0.344 z-score
same,binding signal,[17],-0.345 z-score
same,binding signal,[18],-0.358 z-score
same,binding signal,[19],-0.281 z-score
same,binding signal,[20],-0.326 z-score

# Shown with tabs: entries from further up.
sequence	measurement	setting	value
GGGAGGCTGAGGCAGG [G4-1 biotinylated (PQS2)]	binding signal	[13]	-0.307 z-score
same	binding signal	[14]	-0.347 z-score
